These are yes or no findings as the source states them, for the method shown. For some assays here: Binding seen in cells or lysates may run through a third protein. Some entries that bind do so weakly or less than the wild type. For some assays here: Tags and fused reporters may be left off the sequences shown. Values belong to the binder of their own block, whether it stands above or below them.
What was measured:
GST-Snu13 (yeast) = target: T1, GST-Snu13 (yeast) (UniProt P39990); test: pull-down; GST or GST-Snu13 from E. coli total extract bound to glutathione-sepharose in PBS (1 hour, 4°C), washed, then incubated 2 hours with total extract expressing His-Nop1 and then His-Nop17, washes between; elution with 10 mM reduced glutathione; western blot with anti-GST and anti-His sera; only the target purified
T1 sequence: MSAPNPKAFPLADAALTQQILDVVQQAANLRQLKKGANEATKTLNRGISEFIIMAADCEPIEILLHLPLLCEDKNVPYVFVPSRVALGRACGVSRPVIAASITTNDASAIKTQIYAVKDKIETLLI

[1] = target: T2, ProtA-Nop58 (yeast), Q12499; test: co-IP; ProtA-Nop58 from total yeast extract (WT and Δnop17 strains) on IgG-Sepharose, 2 hours at 4°C; 20 mM Tris-Cl pH 8.0, 0.5 mM magnesium acetate, 0.2% Triton X-100, 150 mM potassium acetate, 1 mM DTT; western blot; conditions: remark: other sources report otherwise
T2 chain: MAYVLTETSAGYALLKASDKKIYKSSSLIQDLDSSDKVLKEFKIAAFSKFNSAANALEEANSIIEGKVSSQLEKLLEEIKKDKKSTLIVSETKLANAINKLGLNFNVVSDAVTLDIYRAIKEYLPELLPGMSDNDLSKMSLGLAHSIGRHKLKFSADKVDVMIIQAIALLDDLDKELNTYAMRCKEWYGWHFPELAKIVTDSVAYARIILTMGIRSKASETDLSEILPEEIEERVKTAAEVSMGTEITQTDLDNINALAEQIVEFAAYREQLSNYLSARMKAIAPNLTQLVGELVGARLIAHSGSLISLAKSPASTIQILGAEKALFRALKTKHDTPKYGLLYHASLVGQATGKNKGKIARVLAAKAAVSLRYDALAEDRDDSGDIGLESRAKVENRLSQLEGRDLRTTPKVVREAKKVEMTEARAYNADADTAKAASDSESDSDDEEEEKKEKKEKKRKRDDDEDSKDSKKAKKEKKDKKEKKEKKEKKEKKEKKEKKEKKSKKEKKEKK

[2] = target: T3, full-length Nop58 (two-hybrid fusion) (yeast) (UniProt Q12499); test: two-hybrid; lexA DNA-binding domain (BD) fusions and Gal4 transcription activation domain (AD) fusions in yeast L40; reporter genes HIS3 and lacZ
T3 sequence: T2 chain

[3] = target: T4, GST-Snu13/His-Nop1 complex (yeast) (UniProt P39990+P15646); test: pull-down; GST or GST-Snu13 from E. coli total extract bound to glutathione-sepharose in PBS (1 hour, 4°C), washed, then incubated 2 hours with total extract expressing His-Nop1 and then His-Nop17, washes between; elution with 10 mM reduced glutathione; western blot with anti-GST and anti-His sera; only the target purified
T4 sequence 1: T1 sequence
T4 sequence 2: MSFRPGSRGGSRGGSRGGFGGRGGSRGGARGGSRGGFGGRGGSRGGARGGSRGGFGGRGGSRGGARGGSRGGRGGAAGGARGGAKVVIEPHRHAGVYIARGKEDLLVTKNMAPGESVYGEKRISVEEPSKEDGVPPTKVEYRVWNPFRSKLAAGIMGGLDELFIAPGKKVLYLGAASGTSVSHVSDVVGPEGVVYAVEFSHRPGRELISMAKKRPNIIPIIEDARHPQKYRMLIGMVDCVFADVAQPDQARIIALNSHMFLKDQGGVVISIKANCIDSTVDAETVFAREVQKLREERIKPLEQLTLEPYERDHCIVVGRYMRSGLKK

- binding (GST-Snu13 (yeast)): binds
B1: His-Nop1 (protein, UniProt P15646 1-327)
chain: T4 sequence 2

- binding [1]: no binding
B2: Nop1 (endogenous), P15646 1-327 (protein)
chain: T4 sequence 2

- binding [2]: binds
B3: Snu13 (two-hybrid fusion) (protein, UniProt P39990 1-126)
chain: T1 sequence

- binding [3]: binds
- binding (GST-Snu13 (yeast)): no binding
B4: His-Nop17 (protein, UniProt P38768 1-344)
chain: MADFLLRPIKQRHRNEDKYVSVDAADGSVSKIEPIADFVIKTKLLSANGPEKLQDGRKVFINVCHSPLVPKPEVDFNARIVFPLIIQNEWEIPIITSCYRMDHDKKGQECYVWDCCINSDCSRWICDDIQLREILVEWCLESCEIRDSVVLCRDRIAFPKMKKKGAELPALEVLNDELHQDYKAKMHKIIEEEAGDPMSILRGRNDDGDDNNDPDDGTLPPLFPIENKISGAKIEEIDKNEIAHRNLKQAPAPAPAPHEQQEDVPEYEVKMKRFKGAAYKLRILIENKAPNSKPDRFSPSYNFAENILYINGKLSIPLPRDIVVNAADIKIFHIRKERTLYIYI

Source: publication PMC4377001
